Measured values taken from article PMC7570497 (Molecules, 2020).
Strings that start with PEPTIDE1 are HELM notation: dots part the residues, brackets hold end groups and non-standard residues.

Assay: general procedure: Fmoc solid-phase peptide synthesis; MBHA resin (100–200 mesh, 0.8 mM/g); TBTU or DMT/NMM/TsO− with DIEA
Conditions: whole synthesis

| Substance | crude yield | difficulty met |
| --- | --- | --- |
| PEPTIDE1{[Dmt].[Tic].[dK].F.D.[am]}$PEPTIDE1,PEPTIDE1,3:R3-5:R3$$$V2.0 | 11% | In case of analog 5, the cyclic dimer was the main product. |
| PEPTIDE1{[Dmt].[Tic].[dK].F.[D-2Nal].D.[am]}$PEPTIDE1,PEPTIDE1,3:R3-6:R3$$$V2.0 | 25% |  |
| PEPTIDE1{[Dmt].[Tic].[dK].F.D.[Tic].[Dmt].[am]}$PEPTIDE1,PEPTIDE1,3:R3-5:R3$$$V2.0 | 19% |  |
| PEPTIDE1{[Dmt].[Tic].[dK].F.[2,4F2-Phe].D.[am]}$PEPTIDE1,PEPTIDE1,3:R3-6:R3$$$V2.0 | 25% |  |
| PEPTIDE1{[Dmt].[Tic].[dK].F.F.D.[am]}$PEPTIDE1,PEPTIDE1,3:R3-6:R3$$$V2.0 | 28% |  |
| PEPTIDE1{[Dmt].[Tic].[D-Dap].F.F.D.[am]}$PEPTIDE1,PEPTIDE1,3:R3-6:R3$$$V2.0 | 18% |  |
